The list shows a part of the results.
system: T1, CTL2-GFP (C. trachomatis L2/434/Bu, GFP-expressing); set-up: species or system HeLa; Intracellular C. trachomatis growth in HeLa cells, bulk GFP fluorescence relative to DMSO; conditions: bulk GFP, single well; 28.5 h, 10 µM; inhibitor
T1 construct: L2/434/Bu, GFP-expressing

SMILES | % of control remaining [%]
FC(F)(F)Oc1cccc(-c2cncc(NCc3ccncc3)n2)c1 [CBK065926] | 165.099
Cc1cc(NC(=O)CN(C)C(=O)c2ccc(-n3cc(Br)cn3)cc2)no1 [CBK305575] | 113.38
Cc1cccn2c(=O)cc(CN3CCC(c4cnn(C)c4)CC3)nc12 [CBK305806] | 121.9
COc1cc(C(F)(F)F)c(-c2ncn[nH]2)cn1 [CBK006362] | 100
COCc1ccc(C(=O)N2CCC(c3cc4cnccc4[nH]3)CC2)cc1 [CBK283448] | 109.757
COc1ccc(CC(=O)Nc2nc(OCC(F)(F)F)cnc2-c2ccc(Cl)cc2Cl)cc1 [CBK145359] | 104.129
Clc1ncccc1OCCOc1ccccc1 [CBK003888] | 105.973
COc1ccc(-c2c(C)nn3c(=O)c(Cc4ccccc4)c(C)[nH]c23)cc1 [CBK266951] | 165.564
CCc1c(C)nn(-c2ccccc2Br)c1-c1ccccc1 [CBK016757] | 94.3155
COc1ccccc1C(NC(=O)C1CCN(CCCN2C(=O)CC3CCCCC3C2=O)CC1)c1ccccn1 (centres unmarked) [CBK147940] | 120.15
Cn1c(SCC(=O)O)nnc1-c1cc(Br)ccc1O [CBK269150] | 84.8178
Cc1cc2c(cc1C)C(O)CC1(CCN(CC(=O)NC3CCCCC3)CC1)O2 (centres unmarked) [CBK286399] | 106.87
COc1ccc(CN2CC(C(=O)O)CC2=O)cc1 (centres unmarked) [CBK267242] | 133.67
O=C(Cc1cccc(F)c1)N1CCOCC1 [CBK058928] | 114.004
Cc1csc(NS(=O)(=O)CC(C)C)n1 [CBK021434] | 165.556
Cn1ccnc1CN1C[C@@H]2CCCN2C[C@@H]1Cc1ccccc1 [CBK283202] | 143.393
CN(C)S(=O)(=O)c1cccc(C(=O)N(Cc2ccc(F)cc2)Cc2ccco2)c1 [CBK267579] | 119.326
CCOC(=O)CCCCSc1c(CC)c(C)nc2ccccc12 [CBK153458T] | 101.216
O=C(NCCOc1ccc(F)cc1)c1cccc(-n2cccn2)c1 [CBK281596] | 128.184
CC(=O)N(CN1C(=O)CCC1=O)C(CC(C)C)C(=O)O (centres unmarked) [CBK286553] | 111.602
O=C(c1cccc(-c2ccc(F)cc2)c1)N1CC(O)C1 [CBK281499] | 115.195
O=C(CSc1nnc(Cc2ccccc2)o1)N1c2ccccc2Sc2ccccc21 [CBK268008] | 114.287
CCOC(=O)C1CCN(S(=O)(=O)c2ccccc2)CC1 [CBK051091] | 115.564
CCn1cc(S(=O)(=O)NC2(c3ccccc3)CCCC2)cn1 [CBK282767] | 128.709
CCCc1[nH]nc(O)c1CCc1ccccc1C(F)(F)F [CBK075081] | 82.2908
Cc1ccccc1-c1ccccc1CC1(C(=O)N(C)C)CCN(C(=O)C2CCCCC2)CC1 [CBK285718] | 98.2945
CCCCn1c(SC(C)C(N)=O)nc2cc(C(=O)OC)ccc2c1=O (centres unmarked) [CBK305877] | 113.223

SMILES | % of control remaining [%]
COc1cccc(NCc2nnc(SCC(=O)O)n2C2CCCCC2)c1 [CBK297499] | 97.1473
CCn1cc(C(=O)NN)c(=O)c2cc(F)c(N3CCSCC3)cc21 [CBK307148] | 107.01
Nc1nnc(CSc2cccc3cccnc23)o1 [CBK021397] | 134.97
CCOc1ccc(S(=O)(=O)N2CCN(Cc3cccc(F)c3C)CC2)c2cccnc12 [CBK062794] | 129.788
CC(Oc1ccc(Cl)cc1Cl)C(=O)O/N=C(\N)c1ccccn1 (centres unmarked) [CBK264673] | 123.176
Cc1cc(C)nc(N2CCC(CC(=O)N3CCN(C4CCCC4)CC3)CC2)n1 [CBK285957] | 125.177
CCCN1CCN(Cc2cccc3c2ccn3S(=O)(=O)c2cccs2)CC1 [CBK116196T] | 141.762
Cn1c(=O)[nH]c(=O)c2c1nc(NC1CCCCC1)n2CCCc1ccccc1 [CBK269500] | 151.44
Cn1nccc1CN1CCCC(COc2ccccc2F)C1 (centres unmarked) [CBK281663] | 114.051
COc1ccc(Cl)cc1NC(=O)CN(c1cccc(C(C)=O)c1)S(C)(=O)=O [CBK267835] | 87.9053
Cc1ccc(NC(=O)c2cnc3sccn3c2=O)cc1 [CBK287448] | 144.318
O=C(Nc1ccon1)c1nn(-c2ncccn2)c2ccccc12 [CBK048513] | 181.271
COc1ccc(Cn2c(=O)n(S(=O)(=O)c3ccc(C)cc3)c3ccccc32)cc1 [CBK106550] | 106.191
C[C@H](NC(=O)Cn1cc(-c2ccc(CN3CCCC3)cc2)nn1)c1ccc(Br)cc1 [CBK167692] | 94.4685
COc1ccc(OCCCN)c(C(=O)N2CCc3nc[nH]c(=O)c3C2)c1 [CBK307361] | 127.483
Cc1ccc(S(=O)(=O)CC(=O)N2CCCC3(CCN(C(=O)Cc4c[nH]c5ccccc45)C3)C2)cc1 (centres unmarked) [CBK131595] | 112.811
COc1ccc(C2(NC(=O)Cn3ccnc3)CCCCC2)cc1 [CBK283661] | 129.374
O=C(Nc1cccc2nsnc12)c1cc(Cl)ccc1NS(=O)(=O)c1cccc2nsnc12 [CBK261129] | 100
CC(=O)Nc1nnc(-c2ccc3c(c2)CCCC3)o1 [CBK287426] | 150.502
CC(C)CN1CCOC(CNC(=O)c2cc(O)nc3ccccc23)C1 (centres unmarked) [CBK297931] | 146.281
O=c1c2cccnc2nc(SCCO)n1CC1CCCO1 (centres unmarked) [CBK306113] | 94.2895
Nc1ncc(-c2ccncc2)nc1NCCCN1CCOCC1 [CBK063631] | 141.677
CC1CCc2noc(C3CCCN(C(=O)c4ccco4)C3)c2C1 (centres unmarked) [CBK282865] | 100.687
CCN1CCOC(CNc2ncnc3c2CCC3)C1 (centres unmarked) [CBK304811] | 100.005
Cc1cc(NC(=O)c2cc3ccccc3o2)nc2c1c(=O)oc1ccccc12 [CBK291256] | 135.471
O=C(CC1SC(NC2CCCCC2)=NC1=O)Nc1cc(Cl)ccc1Cl (centres unmarked) [CBK059501] | 115.03
CCOC(=O)C1CCN(S(=O)(=O)c2ccccc2C#N)CC1 [CBK051111] | 130.376

Random excerpt: two compounds from above.
SMILES | % of control remaining [%]
O=C(CC1SC(NC2CCCCC2)=NC1=O)Nc1cc(Cl)ccc1Cl (centres unmarked) [CBK059501] | 115.03
FC(F)(F)Oc1cccc(-c2cncc(NCc3ccncc3)n2)c1 [CBK065926] | 165.099

(further entries)

SMILES | % of control remaining [%]
CN1CCN(CCCNC(=O)N2CCN(Cc3ccccc3)CC2)CC1 [CBK155621] | 100
c1cnc2[nH]c(C3CCNCC3)c(CN3CCCCCC3)c2c1 [CBK285057] | 135.633
CC1CN(Cc2cccc(CNc3nccnc3C#N)c2)CCO1 (centres unmarked) [CBK304736] | 130.069
Cn1cccc1C(=O)N[C@H]1C[C@@H]2C(=O)N[C@H]3CCN(C(=O)C4CCCC4)[C@@H]3C(=O)N2C1 [CBK289272] | 109.271
Cc1csc(C(Cc2ccsc2)NC(=O)CCc2ccno2)n1 (centres unmarked) [CBK285099] | 86.7305
O=C(Nc1ccc(C(F)(F)F)cc1)N1CCC(n2c(=O)[nH]c3ccccc32)CC1 [CBK149847] | 89.9148
Cn1c(=O)n(C)c2cc(-c3nc4ccccc4c(=O)[nH]3)ccc21 [CBK287887] | 122.65
CC(=O)N1CCC2(CCCC[C@H]3CN(CC(=O)N(C)C)CC[C@@H]3NC(=O)CNC2=O)CC1 [CBK292163] | 94.4343
COC(C)CN(C)C(=O)c1nnn(-c2ccc3ncccc3c2)c1C (centres unmarked) [CBK304484] | 113.368
Cc1nc(C(F)(F)F)ccc1COC(=O)N1CCOCC1 [CBK200122] | 104.518
OCCOc1cccc2cccnc12 [CBK001784] | 116.473
O=C(NC1CCS(=O)(=O)C1)c1cnc2c(OC(F)(F)F)cccc2c1O (centres unmarked) [CBK304323] | 127.138
CCOC(=O)N1CCC(NC(=O)N(Cc2cccnc2)Cc2ccc3c(c2)OCO3)CC1 [CBK158897] | 92.5283
CN1CCc2c1nc1ccccc1c2NC(=O)CN1CCCCCC1 [CBK278298G] | 79.2595
OCc1ccc(-c2nccnc2NCc2cccs2)cc1 [CBK088689] | 134.754
O=C(CN1CCN(C(c2ccccc2)c2ccccc2)CC1)CN1C(=O)c2ccccc2C1=O [CBK261682] | 99.418
CC1(C)CC2CC(C)(CN2Cc2c(O)ccc3cc(-c4nc(-c5ccc(Br)cc5)cs4)c(=O)oc23)C1 (centres unmarked) [CBK263831] | 100
COc1ccc(-c2ncc(Oc3cccc(NC(C)=O)c3)nc2N)c(OC)c1 [CBK145087] | 95.3995
CN(C)C(=O)C(C)(C)Oc1cc(C(F)(F)F)n(C)n1 [CBK056980] | 152.843
CC(C)NC(=O)CN1CCN(Cc2nc(-c3cccc(Cl)c3)no2)CC1 [CBK304369] | 139.171
Cc1ccc(C)c(NC(=O)CCc2c(C)[nH]c3ncnn3c2=O)c1 [CBK304646] | 118.75
O=S(=O)(c1ccccc1)n1ccc2c(Br)cccc21 [CBK002084] | 80.7068
O=C(Nc1cccnc1N1CCNCC1)c1cccnc1 [CBK029426T] | 103.688
O=[N+]([O-])c1ccccc1N/C(=N/S(=O)(=O)c1ccccc1)c1ccccc1 [CBK262336] | 105.634
Brc1ccc(-c2nc(CSc3nnnn3C3CCCCC3)no2)cc1 [CBK026913] | 92.4793
COC[C@H]1CCCN1C(=O)CC[C@H]1CNC(=O)[C@@H]2[C@@H](CCN2C2CCCCC2)N1C [CBK289039] | 138.079

As entered above.
Cc1csc(C(Cc2ccsc2)NC(=O)CCc2ccno2)n1 (centres unmarked) [CBK285099] | % of control remaining [%]: 86.7305
CC(=O)N1CCC2(CCCC[C@H]3CN(CC(=O)N(C)C)CC[C@@H]3NC(=O)CNC2=O)CC1 [CBK292163] | % of control remaining [%]: 94.4343
O=C(CN1CCN(C(c2ccccc2)c2ccccc2)CC1)CN1C(=O)c2ccccc2C1=O [CBK261682] | % of control remaining [%]: 99.418
Nc1ncc(-c2ccncc2)nc1NCCCN1CCOCC1 [CBK063631] | % of control remaining [%]: 141.677

— article PMC12040169 (PLOS Biology, 2025)
